Reference: patent publication US12202818B2, “Compounds and methods for CD73 modulation and indications therefor” (Opna Bio SA, priority 2020, dated 2025)
The structures given here were assigned with low confidence; some may be wrong.

The chains behind the UniProt entries cited, without tags or fusion partners. Residues count along the entry.
UniProt P21589, 27-549 limits assumed: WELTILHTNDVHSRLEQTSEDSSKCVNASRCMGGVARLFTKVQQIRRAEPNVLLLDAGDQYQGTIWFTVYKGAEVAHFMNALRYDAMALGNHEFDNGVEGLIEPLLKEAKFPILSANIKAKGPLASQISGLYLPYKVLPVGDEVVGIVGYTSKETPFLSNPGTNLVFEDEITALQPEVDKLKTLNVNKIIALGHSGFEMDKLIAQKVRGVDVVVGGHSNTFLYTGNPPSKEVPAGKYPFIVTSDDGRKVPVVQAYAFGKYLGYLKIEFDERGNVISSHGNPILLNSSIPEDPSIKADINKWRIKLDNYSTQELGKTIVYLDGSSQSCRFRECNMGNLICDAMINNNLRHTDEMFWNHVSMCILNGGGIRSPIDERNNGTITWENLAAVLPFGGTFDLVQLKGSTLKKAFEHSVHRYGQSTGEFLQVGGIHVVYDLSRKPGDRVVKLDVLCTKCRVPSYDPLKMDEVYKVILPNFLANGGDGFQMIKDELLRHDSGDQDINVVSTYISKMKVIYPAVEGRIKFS

Experiments:
[1] = molecular target: Human CD73 (amino acid residues 27-549) (Homo sapiens, UniProt P21589); assay: CD73 enzymatic assay (luciferase-based indirect assay, CellTiter-Glo); conditions: read-out: CD73 IC50; 0.4 nM CD73, 150 μM AMP, 1 hour at room temperature
Experimental: CD73 enzymatic activity was measured in a luciferase-based indirect assay using CellTiter-Glo® system from Promega. The luciferase reaction in the presence of ATP is inhibited by AMP, a primary substrate of CD73. Addition of CD73 enzyme to the reaction converts AMP to adenosine, and release the inhibition, producing a luminescent signal. Inhibition of CD73 leads to the decrease of this luminescent signal.
Human CD73 (amino acid residues 27-549) with N-Terminal His tag was purified in E. coli. All the assay components were prepared in 50 mM HEPEs buffer (pH 7.4) with 0.01% Tween-20. The CD73 enzymatic assay was performed using 0.4 nM CD73 and 150 μM AMP. 9.5 μL of CD73 protein and 9.5 μL of AMP were added to the wells of a 384 well plate containing lpL of various concentrations of test compound or DMSO vehicle and incubated for 1 hour at room temperature. 16 wells containing CD73, AMP and 5% DMSO served as high control. […] Enzymatic reaction was stopped and AMP level was measured indirectly by adding 5 μL of CellTiter-Glo® 2.0 reagent and 5 μL of ATP with a final concentration of 1 μM. Following incubation of the plate at room temperature for 30 minutes, luminescent signal was read on a Tecan plate reader. The percentage inhibition at individual concentrations relative to high and low controls was calculated. The data were analyzed by using nonlinear regression to generate IC50 values.

[2] = molecular target: human CD73 (Homo sapiens, UniProt P21589); assay: Inhibitor activity against CD73 in cell based assay (CD73 expressing CHO-K1 cells); conditions: read-out: CHO-K1 CELL_VARIANT: CD73 IC50; CHO-K1 cells expressing human CD73, 150 μM AMP, 4 hours of incubation
Experimental: Determine Inhibitor Activity Against CD73 in Cell Based Assay
CD73 expressing CHO-K1 cell clones were generated upon stable transfection of a plasmid expressing human CD73 under the control of CMV promoter. Cells were selected in Ham's F-12K (Kaighn's) media supplemented with 10% fetal bovine serum and 1 mg/ml G418 at 37° C. in a humidified incubator supplied with 5% CO2. The assays were performed as follows. Cells were seeded in a 96 well plate in 50 μL of culture media at a density of 1×10^4 per well. Compound at a maximal concentration of 5 mM was serially diluted 1:3 in DMSO for a total of 8 point titration. A 2 μL aliquot of each dilution point was added to […] culture media and 25 µL was added to each well, providing 10 μM compound at the maximum concentration point. AMP was diluted in culture media and 25 μL was added to each well with a final concentration of 150 μM. […] AMP level in supernatant was measured indirectly by adding 5 μL of CellTiter-Glo® 2.0 reagent and 5 μL of ATP with a final concentration of 1 μM. Following incubation of plate at room temperature for 30 minutes, luminescent signal was read on a Tecan plate reader. The percentage inhibition at individual concentrations relative to high and low controls was calculated. The data were analyzed by using nonlinear regression to generate ICso values.

Cc1nn(CC23CC(C#N)(C2)C3)c(C)c1-c1ccnc(O[C@@H]2CCN(c3cn[nH]c(=O)c3Cl)C2)c1
IC50 [1]: 0.001 to 10 µM | IC50 [2]: 0.001 to 10 µM
